US12606523B2, “Deuterated organic compounds and uses thereof” (ENGRAIL THERAPEUTICS, INC., priority 2022, dated 2026)
Where “and” joins values, the source holds several entries; their conditions need not be identical. Identical values can stand only once.

Sequences of proteins named here, by UniProt entry; tags and fusion partners are left off.
UniProt P28223, whole entry: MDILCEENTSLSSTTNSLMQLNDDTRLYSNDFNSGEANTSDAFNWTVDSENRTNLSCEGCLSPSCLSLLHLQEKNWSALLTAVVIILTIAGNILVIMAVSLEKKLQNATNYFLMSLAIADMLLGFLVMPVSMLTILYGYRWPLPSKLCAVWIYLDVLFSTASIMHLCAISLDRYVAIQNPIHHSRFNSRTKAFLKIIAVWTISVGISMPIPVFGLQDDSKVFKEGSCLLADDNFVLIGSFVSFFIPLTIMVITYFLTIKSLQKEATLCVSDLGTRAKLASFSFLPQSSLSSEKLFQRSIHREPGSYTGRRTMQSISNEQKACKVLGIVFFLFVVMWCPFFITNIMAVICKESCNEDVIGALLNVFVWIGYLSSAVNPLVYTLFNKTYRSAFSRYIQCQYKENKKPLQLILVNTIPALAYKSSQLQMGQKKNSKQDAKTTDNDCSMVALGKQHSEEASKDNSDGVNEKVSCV

Legend:
[1] = molecular target: T1, human Serotonin 5-HT2A receptor (Homo sapiens, UniProt P28223); test: IP-One HTRF functional assay, antagonist mode; format: cell-based; set-up: expressed in transfected cells; host or cells: CHO-K1
[2] = molecular target: T1, human Serotonin 5-HT2A receptor; test: cell-based; details: 5-HT2A (agonist mode) EC50, IP-one
[3] = molecular target: T1, human Serotonin 5-HT2A receptor; test: Radioligand binding competition, filtration, [3H]-Ketanserin, CHO-K1 membranes; set-up: expressed in transfected cells; host or cells: CHO-K1

Row | SMILES | EC50 [1] | EC50 [2] | IC50 [3] | Ki [3] [nM]
1 | CNc1cc(OC)c(C(=O)N[C@H]2CCN(Cc3ccccc3)[C@H]2C)cc1Cl (racemic) [Nemonapride, (±)-cis-N-(1-Benzyl-2-methylpyrrolidin-3-yl)-5-chloro-2-methoxy-4-methylaminobenzamide] | 6.5 nM |  |  | 
2 | [2H]C([2H])([2H])Nc1cc(OC)c(C(=O)N[C@H]2CCN(C([2H])([2H])c3ccccc3)[C@H]2C)cc1Cl [Example A1, 5-Chloro-N-((2S,3S)-1-(dideutero(phenyl)methyl)-2-methylpyrrolidin-3-yl)-2-methoxy-4-(trideuteromethylamino)benzamide] | 14.1 nM and 24 nM and 4.26 nM | 2.5 nM and 1.26 nM and 5.2 nM and 1.15 nM | 16.4 nM and 16 nM and 16.8 nM | 3.7
3 | CNc1cc(OC)c(C(=O)N[C@H]2CCN(Cc3ccccc3)[C@H]2C)cc1Cl [cis (S,S) nemonapride, N-[(2S,3S)-1-benzyl-2-methylpyrrolidin-3-yl]-5-chloro-2-methoxy-4-(methylamino)benzamide, reference compound] | 2.4 nM | 2.8 nM | 13 nM | 2.9
